Measurements reported in PubChem BioAssay AID1259424 (University of Nebraska Medical Center, 2018)
Here is an unselected part of about 14,000 deposited reagents. 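Higher correlation or smaller distance means closer resemblance to KSR1 loss; control wells, including KSR1 knockdowns, recur on many plates.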 Further read-outs or replicates are left out here. No sequences are given here. Not stated in the record: the time to read-out.

Screen: 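Seek colon cancer survival genes behaving like KSR1, using a six-gene signature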 (primary screen)
System: human HCT116 colon cancer cells
Knock-down reagent: siRNA pool against human genes, 50 nM
Measurement: 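Log2 levels of six mRNAs (branched-DNA multiplex), adjusted by two reference genes and the non-targeting median, then scored against the average KSR1 knockdown pattern as Pearson r and euclidean distance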
Direction: mean correlation with KSR1 profile: higher = expression change more like KSR1 knockdown

Target gene	mean correlation with KSR1 profile
SLX9	0.874
TRMO	-0.257
PACSIN2	-0.185
GPBP1	0.341
APOBEC3B	-0.0154
MT-ND4L	-0.319
SLF2	-0.204
ULBP3	-0.0857
SPOP	-0.292
CARD11	0.829
ABCC6	-0.663
TBCB	-0.193
DOLK	-0.144
NXF3	-0.0902
PTPRS	0.0613
PNISR	-0.546
PRMT1	-0.185
MIER3	0.0366
ARRB1	0.626
INPP5E	0.694
UBA5	0.716
TRRAP	0.601
CBX1	-0.568
NR4A3	0.288
CAND2	0.248
TNNI3	-0.25
SNAP25	-0.0628
COX7A1	0.0703
TRIM21	0.382
CCDC102B	0.292
ARFIP1	0.0806
PCDHGB5	-0.163
SLC2A4	0.269
EPC1	0.42
CDH15	0.375
CS	-0.424
KCNA5	-0.355
DENND3	-0.809
SLC12A2	-0.0509
PIK3R3	0.467
OTC	0.374
EIF4G1	-0.377
OAS2	-0.0149
AK4	-0.0301
GPHN	0.523
ERCC1	-0.235
HIVEP3	0.0615
ZNF8	-0.301
DAAM1	0.249
TMEM156	0.755
